From the supplement of paper PMC12823440, “Inhibitors supercharge kinase turnover through native proteolytic circuits” (Nature, 2025)
Counter-ions that a name gives are not always drawn. Some of the results follow. Hit calls seldom repeat between salt and free forms of one compound.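 Kinases, fused to nanoluciferase, were expressed in K562 cells; luminescence was measured every 4 h from 2 to 18 h as percent of control (DMSO = 100%, positive control = 0%). A time point is decreased if signal falls significantly (2 sigma). Hits were called by the authors by a rule that is not shown; the count of time points alone does not decide it.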

Protein sequences, listed by entry. Tags and fused reporters are not part of them. Lines headed by an entry give the natural chain unless they say otherwise; changes in a name come on top.
UniProt Q14289, whole entry, looked up: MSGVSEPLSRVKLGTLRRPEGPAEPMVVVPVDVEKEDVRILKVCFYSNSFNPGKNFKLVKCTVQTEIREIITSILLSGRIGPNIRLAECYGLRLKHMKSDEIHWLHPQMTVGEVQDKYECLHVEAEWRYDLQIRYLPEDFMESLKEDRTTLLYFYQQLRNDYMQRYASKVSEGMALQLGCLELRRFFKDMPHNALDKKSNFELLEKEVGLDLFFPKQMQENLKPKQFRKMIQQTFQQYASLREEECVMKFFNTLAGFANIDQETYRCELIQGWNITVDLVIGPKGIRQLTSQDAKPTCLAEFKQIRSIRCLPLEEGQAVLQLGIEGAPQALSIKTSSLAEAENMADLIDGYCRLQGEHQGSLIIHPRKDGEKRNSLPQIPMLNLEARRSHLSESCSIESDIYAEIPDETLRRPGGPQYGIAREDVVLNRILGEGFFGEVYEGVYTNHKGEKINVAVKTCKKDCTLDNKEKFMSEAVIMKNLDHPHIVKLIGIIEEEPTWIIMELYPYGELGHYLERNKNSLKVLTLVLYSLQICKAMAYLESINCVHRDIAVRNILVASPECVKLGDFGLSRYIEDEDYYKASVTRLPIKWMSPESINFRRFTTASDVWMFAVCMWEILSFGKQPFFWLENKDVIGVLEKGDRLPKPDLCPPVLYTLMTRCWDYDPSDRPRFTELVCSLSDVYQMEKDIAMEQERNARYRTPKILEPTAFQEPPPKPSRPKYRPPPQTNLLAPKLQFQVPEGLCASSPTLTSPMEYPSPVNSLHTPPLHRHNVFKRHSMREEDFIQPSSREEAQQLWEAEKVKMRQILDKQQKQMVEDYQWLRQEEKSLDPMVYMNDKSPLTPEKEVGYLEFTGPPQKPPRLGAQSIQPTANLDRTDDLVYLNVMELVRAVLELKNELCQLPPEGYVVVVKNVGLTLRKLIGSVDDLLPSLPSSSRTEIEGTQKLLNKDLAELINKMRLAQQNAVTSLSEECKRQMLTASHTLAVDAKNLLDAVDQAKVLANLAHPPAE
UniProt P07949, whole entry, looked up: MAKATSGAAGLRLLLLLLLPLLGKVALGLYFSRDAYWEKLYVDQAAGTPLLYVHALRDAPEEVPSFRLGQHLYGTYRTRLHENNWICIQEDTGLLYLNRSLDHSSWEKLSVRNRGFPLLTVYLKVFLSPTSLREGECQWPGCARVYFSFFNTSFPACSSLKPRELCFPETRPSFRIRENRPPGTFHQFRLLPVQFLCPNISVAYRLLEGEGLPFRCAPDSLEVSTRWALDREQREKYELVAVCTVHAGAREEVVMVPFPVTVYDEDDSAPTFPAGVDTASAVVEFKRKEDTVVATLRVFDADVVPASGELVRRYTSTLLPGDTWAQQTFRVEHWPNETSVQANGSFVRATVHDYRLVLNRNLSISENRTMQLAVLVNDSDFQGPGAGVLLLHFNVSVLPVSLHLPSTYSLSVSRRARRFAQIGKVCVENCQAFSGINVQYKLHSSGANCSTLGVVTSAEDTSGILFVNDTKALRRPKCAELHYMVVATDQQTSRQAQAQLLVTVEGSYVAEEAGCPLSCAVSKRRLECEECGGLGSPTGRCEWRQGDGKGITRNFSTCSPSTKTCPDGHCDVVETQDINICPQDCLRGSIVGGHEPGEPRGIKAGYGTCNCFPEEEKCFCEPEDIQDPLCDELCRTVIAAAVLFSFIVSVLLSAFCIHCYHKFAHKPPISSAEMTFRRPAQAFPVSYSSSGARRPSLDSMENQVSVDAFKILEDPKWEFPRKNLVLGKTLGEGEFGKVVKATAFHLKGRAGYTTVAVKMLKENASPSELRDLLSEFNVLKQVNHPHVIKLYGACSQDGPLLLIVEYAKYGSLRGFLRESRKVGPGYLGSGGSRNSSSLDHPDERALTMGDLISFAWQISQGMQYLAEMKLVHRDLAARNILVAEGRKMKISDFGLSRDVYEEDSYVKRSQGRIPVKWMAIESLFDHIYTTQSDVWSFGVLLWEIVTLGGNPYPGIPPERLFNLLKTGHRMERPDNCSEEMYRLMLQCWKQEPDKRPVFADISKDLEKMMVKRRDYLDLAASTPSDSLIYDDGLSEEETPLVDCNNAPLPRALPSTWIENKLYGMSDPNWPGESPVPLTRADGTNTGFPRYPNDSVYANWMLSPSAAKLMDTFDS
UniProt P07949, whole entry M918T, looked up: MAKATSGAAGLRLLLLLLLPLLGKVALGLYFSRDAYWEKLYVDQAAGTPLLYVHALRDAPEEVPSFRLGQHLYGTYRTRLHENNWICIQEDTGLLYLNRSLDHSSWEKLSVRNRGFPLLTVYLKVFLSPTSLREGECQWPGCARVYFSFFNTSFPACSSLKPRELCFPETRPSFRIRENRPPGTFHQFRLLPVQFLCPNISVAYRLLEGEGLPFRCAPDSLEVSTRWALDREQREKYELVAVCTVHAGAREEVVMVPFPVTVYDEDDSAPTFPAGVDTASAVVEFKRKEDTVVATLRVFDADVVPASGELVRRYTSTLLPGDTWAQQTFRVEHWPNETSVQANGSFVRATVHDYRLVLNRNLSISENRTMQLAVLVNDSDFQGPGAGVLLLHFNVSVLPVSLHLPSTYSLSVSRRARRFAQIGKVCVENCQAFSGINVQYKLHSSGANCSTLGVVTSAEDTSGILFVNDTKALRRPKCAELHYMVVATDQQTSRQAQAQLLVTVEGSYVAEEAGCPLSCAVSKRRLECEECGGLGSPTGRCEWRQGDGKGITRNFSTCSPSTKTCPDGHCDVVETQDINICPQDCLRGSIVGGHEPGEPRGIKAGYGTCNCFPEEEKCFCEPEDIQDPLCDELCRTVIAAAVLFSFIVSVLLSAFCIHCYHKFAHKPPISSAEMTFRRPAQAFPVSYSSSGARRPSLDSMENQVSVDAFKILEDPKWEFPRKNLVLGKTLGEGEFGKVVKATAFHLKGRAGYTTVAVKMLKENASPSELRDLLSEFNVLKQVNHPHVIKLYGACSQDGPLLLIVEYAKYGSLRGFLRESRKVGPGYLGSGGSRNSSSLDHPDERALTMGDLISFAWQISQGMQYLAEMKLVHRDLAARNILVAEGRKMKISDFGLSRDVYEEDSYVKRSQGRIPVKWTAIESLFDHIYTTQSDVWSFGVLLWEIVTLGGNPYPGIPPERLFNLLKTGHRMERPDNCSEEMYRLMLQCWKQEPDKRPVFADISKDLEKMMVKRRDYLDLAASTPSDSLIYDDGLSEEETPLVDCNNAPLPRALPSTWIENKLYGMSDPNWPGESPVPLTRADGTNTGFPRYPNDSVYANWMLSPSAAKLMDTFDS
UniProt Q9BRS2: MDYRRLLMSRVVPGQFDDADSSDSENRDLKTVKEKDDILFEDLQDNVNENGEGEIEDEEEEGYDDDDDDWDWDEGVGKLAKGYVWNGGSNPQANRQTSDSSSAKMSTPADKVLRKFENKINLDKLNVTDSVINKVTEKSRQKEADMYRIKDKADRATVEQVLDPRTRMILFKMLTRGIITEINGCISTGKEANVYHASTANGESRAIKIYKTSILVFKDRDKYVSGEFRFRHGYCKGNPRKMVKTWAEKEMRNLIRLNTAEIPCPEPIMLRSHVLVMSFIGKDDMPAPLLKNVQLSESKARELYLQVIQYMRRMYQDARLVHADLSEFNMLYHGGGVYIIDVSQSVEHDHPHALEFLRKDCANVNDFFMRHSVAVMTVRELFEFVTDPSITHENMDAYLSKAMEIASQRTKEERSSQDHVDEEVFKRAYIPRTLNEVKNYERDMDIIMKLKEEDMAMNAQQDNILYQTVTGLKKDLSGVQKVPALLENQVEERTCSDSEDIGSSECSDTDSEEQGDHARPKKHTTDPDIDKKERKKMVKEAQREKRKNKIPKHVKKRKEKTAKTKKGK
UniProt Q9NYA1, whole entry: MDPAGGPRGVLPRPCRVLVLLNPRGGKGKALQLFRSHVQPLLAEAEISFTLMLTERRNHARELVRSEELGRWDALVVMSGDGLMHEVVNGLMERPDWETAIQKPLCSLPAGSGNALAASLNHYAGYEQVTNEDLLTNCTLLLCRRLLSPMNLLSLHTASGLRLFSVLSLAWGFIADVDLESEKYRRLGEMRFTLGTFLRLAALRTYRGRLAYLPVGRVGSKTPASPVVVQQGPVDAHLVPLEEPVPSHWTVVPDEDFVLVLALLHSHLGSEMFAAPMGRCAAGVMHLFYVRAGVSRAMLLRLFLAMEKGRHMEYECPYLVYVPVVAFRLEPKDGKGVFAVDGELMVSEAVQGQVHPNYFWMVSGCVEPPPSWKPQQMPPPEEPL
UniProt P29597: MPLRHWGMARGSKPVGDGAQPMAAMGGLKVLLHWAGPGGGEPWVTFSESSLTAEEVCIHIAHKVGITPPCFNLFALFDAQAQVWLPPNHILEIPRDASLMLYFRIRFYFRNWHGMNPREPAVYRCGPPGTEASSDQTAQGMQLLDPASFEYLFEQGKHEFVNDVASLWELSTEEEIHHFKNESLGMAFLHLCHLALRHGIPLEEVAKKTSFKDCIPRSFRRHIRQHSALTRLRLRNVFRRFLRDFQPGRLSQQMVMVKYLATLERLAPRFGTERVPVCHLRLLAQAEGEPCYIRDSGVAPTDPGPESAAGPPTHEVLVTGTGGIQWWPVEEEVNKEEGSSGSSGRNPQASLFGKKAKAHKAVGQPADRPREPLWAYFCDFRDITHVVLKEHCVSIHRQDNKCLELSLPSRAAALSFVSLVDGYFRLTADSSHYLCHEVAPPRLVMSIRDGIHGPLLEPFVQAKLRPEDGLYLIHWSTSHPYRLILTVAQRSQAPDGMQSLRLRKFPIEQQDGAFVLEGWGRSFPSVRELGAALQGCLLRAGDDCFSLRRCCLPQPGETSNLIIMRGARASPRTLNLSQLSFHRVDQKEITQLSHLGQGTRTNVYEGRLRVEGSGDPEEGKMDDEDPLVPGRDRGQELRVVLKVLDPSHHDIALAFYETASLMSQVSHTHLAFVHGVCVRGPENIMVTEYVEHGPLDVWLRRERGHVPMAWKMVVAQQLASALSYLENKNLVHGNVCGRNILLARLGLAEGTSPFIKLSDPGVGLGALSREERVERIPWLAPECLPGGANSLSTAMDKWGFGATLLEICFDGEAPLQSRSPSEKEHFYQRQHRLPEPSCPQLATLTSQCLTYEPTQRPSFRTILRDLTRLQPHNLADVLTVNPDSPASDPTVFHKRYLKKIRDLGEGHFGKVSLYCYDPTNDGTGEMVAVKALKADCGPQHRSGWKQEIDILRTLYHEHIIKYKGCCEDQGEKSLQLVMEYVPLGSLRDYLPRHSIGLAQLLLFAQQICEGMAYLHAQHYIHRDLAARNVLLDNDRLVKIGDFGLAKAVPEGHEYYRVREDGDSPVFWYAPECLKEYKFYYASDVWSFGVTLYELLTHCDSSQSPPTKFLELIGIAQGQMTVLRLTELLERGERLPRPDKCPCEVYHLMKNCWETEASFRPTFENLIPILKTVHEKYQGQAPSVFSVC
UniProt Q6PHR2: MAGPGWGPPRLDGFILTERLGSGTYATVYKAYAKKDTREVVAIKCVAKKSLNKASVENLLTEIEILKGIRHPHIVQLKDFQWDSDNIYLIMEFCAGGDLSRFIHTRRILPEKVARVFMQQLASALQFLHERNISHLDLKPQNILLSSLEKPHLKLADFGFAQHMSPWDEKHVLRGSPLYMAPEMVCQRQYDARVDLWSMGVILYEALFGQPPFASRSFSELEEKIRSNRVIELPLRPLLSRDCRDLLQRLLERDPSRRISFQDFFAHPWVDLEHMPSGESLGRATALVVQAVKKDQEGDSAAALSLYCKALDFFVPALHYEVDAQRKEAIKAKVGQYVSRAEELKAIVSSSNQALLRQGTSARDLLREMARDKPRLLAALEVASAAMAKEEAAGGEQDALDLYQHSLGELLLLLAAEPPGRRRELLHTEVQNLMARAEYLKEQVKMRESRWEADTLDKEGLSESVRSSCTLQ

What was measured:
Assay in all cases: number of time points (of 5) at which kinase-Nluc abundance scored as decreased, DMSO-normalised (count); higher = more persistent destabilization
Conditions in all cases: K562; 2-18 h
[1] = target: PRKCA (UniProt P17252)
[2] = target: PTK2 (UniProt Q05397)
[3] = target: PTK2B (UniProt Q14289)
[4] = target: RAF1 (UniProt P04049)
[5] = target: RAF1_S257L (clone: RAF1_mut) (UniProt P04049)
[6] = target: RET (UniProt P07949)
[7] = target: RET_M918T (clone: RET_mut) (UniProt P07949)
[8] = target: RIOK1 (UniProt Q9BRS2)
[9] = target: RIPK1 (UniProt Q13546)
[10] = target: RIPK2 (UniProt O43353)
[11] = target: ROR2 (UniProt Q01974)
[12] = target: RPS6KA1 (UniProt Q15418)
[13] = target: SPHK1 (UniProt Q9NYA1)
[14] = target: SRC (UniProt P12931)
[15] = target: STK24 (UniProt Q9Y6E0)
[16] = target: STK38 (UniProt Q15208)
[17] = target: SYK (UniProt P43405)
[18] = target: TEC (UniProt P42680)
[19] = target: TYK2 (UniProt P29597)
[20] = target: ULK3 (UniProt Q6PHR2)

SMILES | number of time points [1] | number of time points [2] | number of time points [3] | number of time points [4] | number of time points [5] | number of time points [6] | number of time points [7] | number of time points [8] | number of time points [9] | number of time points [10] | number of time points [11] | number of time points [12] | number of time points [13] | number of time points [14] | number of time points [15] | number of time points [16] | number of time points [17] | number of time points [18] | number of time points [19] | number of time points [20]
CN(C)c1nc2c(Br)c(Br)c(Br)c(Br)c2n1CC(=O)O (10 µM) | 0 | 0 | 0 | 0 | 0 | 0 | 0 | 0 | 0 | 0 | 0 | 0 | 0 | 0 | 0 | 0 | 0 | 0 | 0 | 0
CCOc1ccccc1C=C1C(=O)Nc2ccccc21 (10 µM) | 0 | 0 | 0 | 0 | 0 | 0 | 0 | 0 | 0 | 0 | 0 | 0 | 0 | 0 | 0 | 0 | 0 | 0 | 2 | 0
C[C@H]1[C@H](OC(=O)CCC(=O)O)O[C@@H]2O[C@@]3(C)CC[C@H]4[C@H](C)CC[C@@H]1[C@@]24OO3 [Artesunate] (2.5 µM) | 0 | 0 | 0 | 1 | 2 | 1 | 0 | 0 | 1 | 1 | 0 | 0 | 1 | 0 | 0 | 0 | 0 | 0 | 2 | 0
C[C@@H]1COCCN1c1cc(=O)n2c(n1)N(Cc1cncc(Cl)c1)[C@H](C(F)(F)F)CC2 (10 µM) | 0 | 1 | 0 | 0 | 0 | 0 | 0 | 0 | 2 | 0 | 0 | 0 | 0 | 0 | 0 | 0 | 0 | 0 | 0 | 0
COc1cc(N2CCC(N(C)C)CC2)ccc1Nc1ncc(Cl)c(Nc2ccccc2P(C)(C)=O)n1 (2.5 µM) | 0 | 0 | 0 | 0 | 0 | 0 | 0 | 0 | 0 | 0 | 0 | 0 | 0 | 0 | 0 | 0 | 0 | 1 | 0 | 0
COc1ccc(CNc2nc(N(CCO)CCO)nc3c2ncn3C(C)C)cc1 (2.5 µM) | 0 | 0 | 0 | 0 | 0 | 0 | 0 | 0 | 0 | 0 | 0 | 0 | 0 | 0 | 0 | 0 | 0 | 0 | 0 | 0
COc1cc(C(C)=O)cc(OC)c1O [Acetosyringone] (10 µM) | 0 | 0 | 0 | 0 | 0 | 0 | 0 | 0 | 0 | 0 | 0 | 0 | 0 | 0 | 0 | 0 | 0 | 0 | 0 | 0
Cc1ccc(-c2ccc3c(ccc4sc5c(c43)NC[C@@H](C)NC5=O)n2)cn1 (10 µM) | 0 | 0 | 0 | 0 | 0 | 0 | 0 | 0 | 0 | 0 | 0 | 0 | 0 | 0 | 0 | 0 | 0 | 0 | 0 | 0
COc1ccc2c(c1)c(C1=C(c3c[nH]c4ccccc34)C(=O)NC1=O)cn2CCCN(C)C (10 µM) | 0 | 0 | 0 | 0 | 0 | 0 | 0 | 0 | 0 | 0 | 0 | 0 | 0 | 0 | 0 | 0 | 0 | 0 | 0 | 0
CC(=O)Nc1nc2ccc(-c3cnc(C)c(NC(=O)OC4CCCCC4)c3)cc2s1 (10 µM) | 0 | 0 | 0 | 0 | 0 | 0 | 0 | 0 | 0 | 0 | 0 | 0 | 0 | 0 | 0 | 0 | 0 | 0 | 0 | 0
Nc1nc2cc(-c3ccc4ncc(C(=O)N5CCOCC5)n4c3)ccc2o1 [Serabelisib] (10 µM) | 0 | 0 | 0 | 0 | 0 | 0 | 0 | 0 | 0 | 0 | 0 | 0 | 0 | 0 | 0 | 0 | 0 | 0 | 0 | 0
O=C1NC(=O)C(c2cn(-c3ccccc3)nc2-c2ccc(F)cc2)N1 (stereo not given) (10 µM) | 0 | 0 | 0 | 0 | 0 | 0 | 0 | 0 | 0 | 0 | 0 | 0 | 0 | 0 | 0 | 0 | 0 | 0 | 0 | 0
c1ccc(-c2oc3ncnc(NC[C@@H]4CCCO4)c3c2-c2ccccc2)cc1 (2.5 µM) | 0 | 0 | 0 | 0 | 0 | 0 | 0 | 0 | 0 | 0 | 0 | 0 | 0 | 0 | 0 | 0 | 0 | 0 | 0 | 0
CN1C(=O)NC(Cc2c[nH]c3c(Cl)cccc23)C1=O (racemic) [Necrostatin 2 (racemate)] (10 µM) | 0 | 0 | 0 | 0 | 0 | 0 | 0 | 0 | 0 | 0 | 0 | 0 | 0 | 0 | 0 | 0 | 0 | 0 | 0 | 0
O=C(Nc1ccc(Cl)c(Cl)c1)Nc1ccc2nnsc2c1 (10 µM) | 0 | 0 | 0 | 0 | 0 | 0 | 0 | 0 | 0 | 0 | 0 | 0 | 0 | 0 | 0 | 0 | 0 | 0 | 0 | 0
COc1ccc2c(=O)c(-c3ccccc3)coc2c1 [7-Methoxyisoflavone] (10 µM) | 0 | 0 | 0 | 0 | 0 | 0 | 4 | 0 | 0 | 0 | 0 | 0 | 0 | 0 | 0 | 0 | 0 | 0 | 0 | 0
CC1=C(C(=O)Nc2ccc3[nH]ncc3c2)C(c2ccc(F)cc2)NC(=O)N1 (stereo not given) (10 µM) | 0 | 0 | 0 | 0 | 0 | 0 | 0 | 0 | 0 | 0 | 0 | 0 | 0 | 0 | 0 | 0 | 0 | 0 | 0 | 0

Single records, as listed above. Values in the order: number of time points [1]	number of time points [2]	number of time points [3]	number of time points [4]	number of time points [5]	number of time points [6]	number of time points [7]	number of time points [8]	number of time points [9]	number of time points [10]	number of time points [11]	number of time points [12]	number of time points [13]	number of time points [14]	number of time points [15]	number of time points [16]	number of time points [17]	number of time points [18]	number of time points [19]	number of time points [20]
`COc1cc(N2CCC(N(C)C)CC2)ccc1Nc1ncc(Cl)c(Nc2ccccc2P(C)(C)=O)n1` (2.5 µM) is listed with 0	0	0	0	0	0	0	0	0	0	0	0	0	0	0	0	0	1	0	0
`C[C@@H]1COCCN1c1cc(=O)n2c(n1)N(Cc1cncc(Cl)c1)[C@H](C(F)(F)F)CC2` (10 µM) is listed with 0	1	0	0	0	0	0	0	2	0	0	0	0	0	0	0	0	0	0	0

Next records.

SMILES | number of time points [1] | number of time points [2] | number of time points [3] | number of time points [4] | number of time points [5] | number of time points [6] | number of time points [7] | number of time points [8] | number of time points [9] | number of time points [10] | number of time points [11] | number of time points [12] | number of time points [13] | number of time points [14] | number of time points [15] | number of time points [16] | number of time points [17] | number of time points [18] | number of time points [19] | number of time points [20]
O=C(c1ccc(Nc2nccc(-c3cc4ccccc4s3)n2)cc1)N1CCC(N2CCCC2)CC1 (2.5 µM) | 0 | 0 | 0 | 0 | 0 | 0 | 0 | 0 | 0 | 0 | 0 | 0 | 0 | 0 | 0 | 0 | 0 | 0 | 0 | 0
O=C(O)c1ccc(-c2c[nH]c3ncc(-c4ccccc4)cc23)cc1C1CCCC1 (2.5 µM) | 1 | 0 | 0 | 1 | 0 | 0 | 0 | 0 | 0 | 0 | 0 | 0 | 0 | 0 | 0 | 0 | 0 | 0 | 0 | 0
COC(=O)N[C@@H](C)CNc1nccc(-c2cn(C(C)C)nc2-c2cc(Cl)cc(NS(C)(=O)=O)c2F)n1 [Encorafenib] (10 µM) | 0 | 0 | 0 | 0 | 0 | 0 | 0 | 0 | 0 | 0 | 0 | 0 | 0 | 0 | 0 | 0 | 0 | 0 | 0 | 0
CSc1ccc(CN2CCCC(Nc3ccc4[nH]ncc4c3)C2)cc1 (stereo not given) [Rho-Kinase-IN-1] (10 µM) | 0 | 0 | 0 | 0 | 0 | 0 | 0 | 0 | 0 | 0 | 0 | 0 | 0 | 0 | 0 | 0 | 0 | 0 | 0 | 0
CN(CC(=O)N(Cc1ccc(C2CCCCC2)cc1)c1ccc(C(=O)O)c(O)c1)S(=O)(=O)c1c(F)c(F)c(F)c(F)c1F (2.5 µM) | 0 | 0 | 0 | 0 | 0 | 0 | 0 | 0 | 0 | 0 | 0 | 0 | 0 | 0 | 0 | 0 | 0 | 0 | 0 | 0
N#C/C(=C(/N)Sc1ccc(N)cc1)c1ccccc1C(F)(F)F (10 µM) | 0 | 0 | 0 | 0 | 0 | 0 | 0 | 0 | 0 | 0 | 0 | 0 | 0 | 0 | 0 | 0 | 0 | 0 | 0 | 0
CC[C@@H]1C(=O)N(C)c2cnc(Nc3ccc(C(=O)N[C@H]4CC[C@H](N5CCN(CC6CC6)CC5)CC4)cc3OC)nc2N1C(C)C [Volasertib] (2.5 µM) | 0 | 0 | 0 | 0 | 0 | 0 | 0 | 0 | 0 | 0 | 0 | 0 | 0 | 0 | 0 | 0 | 0 | 0 | 0 | 0
C=CC(=O)Nc1cccc(-n2c(=O)cc(C)c3cnc(Nc4ccc(OCCN(C)C)cc4OC)nc32)c1 (10 µM) | 0 | 0 | 0 | 0 | 0 | 0 | 0 | 0 | 0 | 0 | 0 | 0 | 0 | 0 | 0 | 0 | 0 | 0 | 0 | 0
CN(C)c1ncnc2nc[nH]c12 [6-(Dimethylamino)purine] (10 µM) | 0 | 0 | 0 | 0 | 0 | 0 | 0 | 0 | 0 | 0 | 0 | 0 | 0 | 0 | 0 | 0 | 0 | 0 | 0 | 0
CCCCNC(=N)NC(=N)N [Buformin (hydrochloride)] (2.5 µM) | 0 | 0 | 0 | 0 | 0 | 0 | 0 | 0 | 0 | 0 | 0 | 0 | 0 | 0 | 0 | 0 | 0 | 0 | 0 | 0
CC(C)(C)c1cc(C(c2cc3c(cc2O)OCO3)N2CCOCC2)cc(C(C)(C)C)c1O (stereo not given) (2.5 µM) | 0 | 0 | 0 | 0 | 0 | 0 | 0 | 0 | 0 | 0 | 0 | 0 | 0 | 0 | 0 | 0 | 0 | 0 | 0 | 0
Nc1cccc(S(=O)(=O)N2CCCN(S(=O)(=O)c3ccc4c(c3)OCCO4)CC2)c1 (10 µM) | 0 | 0 | 0 | 0 | 0 | 0 | 0 | 0 | 0 | 0 | 0 | 0 | 0 | 0 | 0 | 0 | 0 | 0 | 0 | 0
O=c1ccc2ccc(O)c(O)c2o1 [Daphnetin] (10 µM) | 0 | 0 | 0 | 0 | 0 | 0 | 0 | 0 | 0 | 0 | 0 | 0 | 0 | 0 | 0 | 0 | 0 | 0 | 0 | 0
CC(CCc1ccccn1)(CCc1ccccn1)C(=O)c1ccccc1 (10 µM) | 0 | 0 | 0 | 0 | 0 | 0 | 0 | 0 | 0 | 0 | 0 | 0 | 0 | 0 | 0 | 0 | 0 | 0 | 0 | 0
COc1cc2ncnc(Nc3ccc(NC(=O)c4ccccc4)cc3)c2cc1OC [Aurora kinase inhibitor-2] (2.5 µM) | 0 | 0 | 0 | 0 | 0 | 0 | 0 | 0 | 0 | 0 | 0 | 0 | 0 | 0 | 0 | 0 | 0 | 0 | 0 | 0
CCN1/C(=C/C(C)=O)Sc2ccc(OC)cc21 (10 µM) | 1 | 3 | 0 | 0 | 0 | 1 | 0 | 1 | 3 | 2 | 0 | 0 | 0 | 0 | 1 | 1 | 0 | 3 | 3 | 0
CC(C)N(C)c1nc2cc(C(=O)O)ccc2nc1-c1ccc(F)cc1 (10 µM) | 0 | 0 | 0 | 0 | 0 | 0 | 0 | 0 | 0 | 0 | 0 | 0 | 0 | 0 | 0 | 0 | 0 | 0 | 0 | 0
